No constants are given. Whether binding was seen depends on the method and setting. For some of these results: Binding seen in cells or lysates may run through a third protein. Some entries that bind do so weakly or less than the wild type. Where a sequence is shown, tags or fusion partners need not be part of it. Each block holds one binder with its values, some of them ahead of it.
How the values were obtained:
[1] = target: T1, HisGST-PDS5A^1-809 (Arabidopsis thaliana) (UniProt B6EUB3); assay: pull-down; co-purification: HisGST-PDS5A^1-809 and HisMBP-WAPL1 co-expressed in E. coli BL21 (DE3)pLysS and purified together on GST agarose beads
T1 sequence: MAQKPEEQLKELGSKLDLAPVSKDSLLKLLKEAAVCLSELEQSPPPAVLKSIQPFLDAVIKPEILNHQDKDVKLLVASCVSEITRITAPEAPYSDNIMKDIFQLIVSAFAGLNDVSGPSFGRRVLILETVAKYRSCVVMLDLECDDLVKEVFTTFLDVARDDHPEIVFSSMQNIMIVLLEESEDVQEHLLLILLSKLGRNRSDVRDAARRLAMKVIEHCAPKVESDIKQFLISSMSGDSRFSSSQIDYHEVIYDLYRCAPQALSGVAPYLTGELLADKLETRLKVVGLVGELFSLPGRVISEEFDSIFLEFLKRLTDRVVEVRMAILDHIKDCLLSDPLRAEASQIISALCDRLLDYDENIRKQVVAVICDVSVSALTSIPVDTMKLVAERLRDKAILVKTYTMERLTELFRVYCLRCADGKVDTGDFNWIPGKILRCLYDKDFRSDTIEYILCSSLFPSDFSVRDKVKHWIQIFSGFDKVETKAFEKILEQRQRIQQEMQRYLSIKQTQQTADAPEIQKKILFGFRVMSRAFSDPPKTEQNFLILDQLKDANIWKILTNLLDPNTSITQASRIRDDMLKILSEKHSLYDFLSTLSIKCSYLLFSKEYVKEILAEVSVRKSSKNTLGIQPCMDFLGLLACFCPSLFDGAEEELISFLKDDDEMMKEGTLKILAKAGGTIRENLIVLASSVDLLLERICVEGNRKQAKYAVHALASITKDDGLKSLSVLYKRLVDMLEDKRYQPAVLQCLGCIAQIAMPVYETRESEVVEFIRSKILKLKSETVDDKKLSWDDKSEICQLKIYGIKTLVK

[2] = target: T1, HisGST-PDS5A^1-809 (Arabidopsis thaliana); assay: pull-down; WAPL removal assay: 50 ng/ul HisGST-PDS5A^1-809-HisMBP-WAPL1 heterodimers on anti-GST agarose beads, incubated with 40, 80, 120 or 200 ng/ul HisMBP-SWI1^1-300; 25 mM Tris-HCl pH 7.5, 100 mM NaCl, 10 mM MgCl2, 2 mM DTT, 10% glycerol, 0.1% Triton X-100; 1 h at 4 °C; supernatant and beads immunoblotted; both purified
[3] = target: T2, PDS5A^1-809, yeast two-hybrid fusion (Arabidopsis thaliana) (UniProt B6EUB3); assay: two-hybrid; Matchmaker Gold system (Clontech), pGADT7-GW and pGBKT7-GW fusions co-transformed into yeast AH109; growth on SD/-Leu -Trp -His
T2 sequence: T1 sequence

[4] = target: T1, HisGST-PDS5A^1-809 (Arabidopsis thaliana); assay: pull-down; HisGST-PDS5A^1-809 on GST agarose beads; 1 ug of each protein; 25 mM Tris-HCl pH 7.5, 100 mM NaCl, 10% glycerol; 1 h at 4 °C; washes with 200 mM NaCl and 0.1% Triton X-100; immunoblot with anti-GST and anti-MBP; both purified

B1: HisMBP-WAPL1 (protein, UniProt F4I7C7 1-930)
chain: MIIVKLTANRICCSLLQLRRSYEHFYIFVFLPEIPLFRFSHLKLFPKNLQIQRLVSAMMERTYGRRKPGIPRTLSDSLNDSVSQTEYLSSSSSPDIEPIDYSLLPFSSQESSSLWHSSSRSNFREDYPQNGGVVRRAKRVRNGAEAAAFTSTLLEAQEFGELMEHEDEVNFALDGLRKGHQLRIRRASLSSLLSICASQHQRRSLRAQGISQSIIDAILVLSLDDIPSNLAAATLFFALTADGQDEHFMESPKCIKFLIKLLKPVIVTSTEGKPRNIGFKLLSLLKDVDAARDPVKMDDPSSSDILSRVQELLVNCKEMRLNDSYITETTRPELSTKWVALLAMERACVSKISFDDTSGSVKKTGGNFKEKLRELGGLDAVLEVVMDCHAVMERWVEYDALSVQEKKDNLHKQSLMLLLKCLKIMENATFLSTDNQNHLLGFKKCLGSHDSRMSFTELTISVIKMLSGLHLRGGFSSPNTNNVNSHYSNGGNHDSVLEANRKVTNEVVTISSDTYSTVGSISTRNGSVSQRSQSIIHLDFSPTSMSGSQSSVSGNEPTTSKTRVGSTISGSFAGRLASLGSDIARTTLRTTQAGEPICKKFGEFAPPEESEDPFAFDLEDYKPSKWAVVSVNQKKSRAQKKKGCYKQSKDESLYQLFSSQEESSNHRLNSQEESSNRDCSTSLQPSHCTNDIDEECLCLLFDCLLTAVKVLMNLTNDNVVGCRQVGGCRGLESMAELIARHFPSFTRSQLFSEMEKTGSSHQKKDKYLTDQELDFLVAILGLLVNLVERDGVNRSRLASASVPITKPEELQESEQEMIPLLCSIFLTNQGSAETKEETTTFTLDDEEAVLEGEKEAEKMIVEAYSALLLAFLSTESRSIRNSIKDYLPKRNLAILVPVLERFVAFHMTLNMIPPETHKAVMGVIESCKSP
binding [1]: binds
binding [2]: binds

B3: HisMBP-SWI1^1-300 (domain or fragment, UniProt Q9FGN8 1-300)
chain: MSSTMFVKRNPIRETTAGKISSPSSPTLNVAVAHIRAGSYYEIDASILPQRSPENLKSIRVVMVSKITASDVSLRYPSMFSLRSHFDYSRMNRNKPMKKRSGGGLLPVFDESHVMASELAGDLLYRRIAPHELSMNRNSWGFWVSSSSRRNKFPRREVVSQPAYNTRLCRAASPEGKCSSELKSGGMIKWGRRLRVQYQSRHIDTRKNKEGEESSRVKDEVYKEEEMEKEEDDDDGNEIGGTKQEAKEITNGNRKRKLIESSTERLAQKAKVYDQKKETQIVVYKRKSERKFIDRWSVER
binding [4]: binds
binding [2]: binds

B4: SWI1^1-300, yeast two-hybrid fusion (domain or fragment, UniProt Q9FGN8 1-300)
chain: B3 chain
binding [3]: binds

Further lines, results first:

binding [3]: binds
B2: WINGS APART-LIKE 1 (WAPL1), yeast two-hybrid fusion (protein, UniProt F4I7C7 1-930)
chain: B1 chain

binding [3]: no binding
B5: SWI1^301-639, yeast two-hybrid fusion (domain or fragment, UniProt Q9FGN8 301-639)
chain: YKLAERNMLKVMKEKNAVFGNSILRPELRSEARKLIGDTGLLDHLLKHMAGKVAPGGQDRFMRKHNADGAMEYWLESSDLIHIRKEAGVKDPYWTPPPGWKLGDNPSQDPVCAGEIRDIREELASLKRELKKLASKKEEEELVIMTTPNSCVTSQNDNLMTPAKEIYADLLKKKYKIEDQLVIIGETLRKMEEDMGWLKKTVDENYPKKPDSTETPLLLEDSPPIQTLEGEVKVVNKGNQITESPQNREKGRKHDQQERSPLSLISNTGFRICRPVGMFAWPQLPALAAATDTNASSPSHRQAYPSPFPVKPLAAKRPLGLTFPFTIIPEEAPKNLFNV
